Results as given in publication PMC6355934.
No constants are given. Whether binding was seen depends on the method and setting. Binding seen in cells or lysates may run through a third protein. Some results given as binding are weak or reduced against the parent protein; the word gives no strength. For part of these data: Sequences can lack the tags named with a protein.

By UniProt entry, the sequences of proteins in these tests, tags left out.
UniProt O75376: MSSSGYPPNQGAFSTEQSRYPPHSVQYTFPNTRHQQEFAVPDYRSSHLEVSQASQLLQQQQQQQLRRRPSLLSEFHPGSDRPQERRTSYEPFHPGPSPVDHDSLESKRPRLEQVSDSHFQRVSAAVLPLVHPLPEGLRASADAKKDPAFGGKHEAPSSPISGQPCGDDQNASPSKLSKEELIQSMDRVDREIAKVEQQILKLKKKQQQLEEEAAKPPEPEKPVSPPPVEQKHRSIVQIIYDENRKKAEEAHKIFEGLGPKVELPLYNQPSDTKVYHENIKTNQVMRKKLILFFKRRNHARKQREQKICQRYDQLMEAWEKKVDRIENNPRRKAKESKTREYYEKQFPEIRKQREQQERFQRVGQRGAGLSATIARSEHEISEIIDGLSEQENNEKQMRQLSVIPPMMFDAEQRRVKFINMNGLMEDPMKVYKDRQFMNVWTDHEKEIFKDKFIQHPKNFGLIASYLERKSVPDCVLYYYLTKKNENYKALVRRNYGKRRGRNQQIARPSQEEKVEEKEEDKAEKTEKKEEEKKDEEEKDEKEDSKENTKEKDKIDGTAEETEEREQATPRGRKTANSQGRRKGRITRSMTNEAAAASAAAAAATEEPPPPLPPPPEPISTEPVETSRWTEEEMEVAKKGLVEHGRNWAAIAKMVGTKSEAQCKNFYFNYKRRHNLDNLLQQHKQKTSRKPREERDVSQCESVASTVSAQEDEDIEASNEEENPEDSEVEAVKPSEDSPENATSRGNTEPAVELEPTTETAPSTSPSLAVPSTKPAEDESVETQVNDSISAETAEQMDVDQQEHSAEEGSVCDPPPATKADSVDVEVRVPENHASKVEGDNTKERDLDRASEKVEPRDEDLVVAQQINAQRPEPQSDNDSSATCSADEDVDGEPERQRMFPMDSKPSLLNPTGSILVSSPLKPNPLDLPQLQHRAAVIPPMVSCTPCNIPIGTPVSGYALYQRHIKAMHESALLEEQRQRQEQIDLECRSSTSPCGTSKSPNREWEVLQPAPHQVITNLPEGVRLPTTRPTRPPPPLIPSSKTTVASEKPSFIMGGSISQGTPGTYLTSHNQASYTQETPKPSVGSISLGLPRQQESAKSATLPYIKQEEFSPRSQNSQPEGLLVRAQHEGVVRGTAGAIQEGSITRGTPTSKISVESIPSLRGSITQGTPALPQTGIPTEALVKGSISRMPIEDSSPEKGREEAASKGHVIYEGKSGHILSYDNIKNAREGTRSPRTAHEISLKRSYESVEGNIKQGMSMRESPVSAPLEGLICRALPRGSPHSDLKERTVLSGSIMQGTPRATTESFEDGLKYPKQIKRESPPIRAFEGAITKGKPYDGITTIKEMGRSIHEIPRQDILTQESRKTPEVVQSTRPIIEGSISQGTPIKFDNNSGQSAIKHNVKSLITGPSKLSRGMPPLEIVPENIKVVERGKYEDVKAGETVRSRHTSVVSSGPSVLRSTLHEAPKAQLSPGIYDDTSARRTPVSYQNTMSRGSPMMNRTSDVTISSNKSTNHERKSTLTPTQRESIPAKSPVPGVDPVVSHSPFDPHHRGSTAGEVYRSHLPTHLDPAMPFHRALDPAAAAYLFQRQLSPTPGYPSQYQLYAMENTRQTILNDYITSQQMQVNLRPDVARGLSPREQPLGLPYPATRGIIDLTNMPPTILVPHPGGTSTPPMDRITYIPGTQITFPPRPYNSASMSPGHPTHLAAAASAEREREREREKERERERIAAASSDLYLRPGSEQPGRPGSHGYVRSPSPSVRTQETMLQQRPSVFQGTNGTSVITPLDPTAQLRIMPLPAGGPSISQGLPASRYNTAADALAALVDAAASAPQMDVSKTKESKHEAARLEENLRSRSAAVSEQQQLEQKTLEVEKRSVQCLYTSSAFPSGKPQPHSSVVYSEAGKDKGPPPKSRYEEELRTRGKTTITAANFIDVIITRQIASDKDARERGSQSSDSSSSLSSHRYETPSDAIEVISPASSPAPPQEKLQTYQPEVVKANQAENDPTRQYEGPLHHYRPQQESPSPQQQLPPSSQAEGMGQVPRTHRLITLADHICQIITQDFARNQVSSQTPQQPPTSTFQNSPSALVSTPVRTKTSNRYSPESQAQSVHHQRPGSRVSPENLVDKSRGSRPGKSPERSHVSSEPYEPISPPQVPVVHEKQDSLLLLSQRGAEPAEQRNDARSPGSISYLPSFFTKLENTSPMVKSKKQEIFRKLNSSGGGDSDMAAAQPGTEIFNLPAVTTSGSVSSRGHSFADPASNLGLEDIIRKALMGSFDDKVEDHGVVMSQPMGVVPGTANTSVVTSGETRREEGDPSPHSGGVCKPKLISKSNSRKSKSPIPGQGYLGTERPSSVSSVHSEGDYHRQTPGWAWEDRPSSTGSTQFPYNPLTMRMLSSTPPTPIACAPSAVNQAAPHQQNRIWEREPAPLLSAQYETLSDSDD

T1: Flag-tagged Transducin beta-like 1 (TBL1) (human) (UniProt O60907)
T1 sequence: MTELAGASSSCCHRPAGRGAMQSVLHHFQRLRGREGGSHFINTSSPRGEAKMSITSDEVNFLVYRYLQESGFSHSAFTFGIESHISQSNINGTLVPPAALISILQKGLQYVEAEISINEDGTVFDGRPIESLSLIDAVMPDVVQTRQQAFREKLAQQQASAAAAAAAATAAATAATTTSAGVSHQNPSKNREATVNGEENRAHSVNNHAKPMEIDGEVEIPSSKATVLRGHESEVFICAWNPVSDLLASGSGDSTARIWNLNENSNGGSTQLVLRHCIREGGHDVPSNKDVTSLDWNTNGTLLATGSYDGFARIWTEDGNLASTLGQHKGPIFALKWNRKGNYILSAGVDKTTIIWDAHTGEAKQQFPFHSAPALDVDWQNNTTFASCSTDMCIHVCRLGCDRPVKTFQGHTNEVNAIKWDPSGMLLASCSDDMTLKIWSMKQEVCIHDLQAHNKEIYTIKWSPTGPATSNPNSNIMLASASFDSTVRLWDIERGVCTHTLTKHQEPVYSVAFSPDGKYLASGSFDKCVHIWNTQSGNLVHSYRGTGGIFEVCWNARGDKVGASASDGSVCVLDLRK

T2: TBLR1 (human (endogenous in HMEC-RAS-ZEB1)) (UniProt Q9BZK7)
T2 sequence: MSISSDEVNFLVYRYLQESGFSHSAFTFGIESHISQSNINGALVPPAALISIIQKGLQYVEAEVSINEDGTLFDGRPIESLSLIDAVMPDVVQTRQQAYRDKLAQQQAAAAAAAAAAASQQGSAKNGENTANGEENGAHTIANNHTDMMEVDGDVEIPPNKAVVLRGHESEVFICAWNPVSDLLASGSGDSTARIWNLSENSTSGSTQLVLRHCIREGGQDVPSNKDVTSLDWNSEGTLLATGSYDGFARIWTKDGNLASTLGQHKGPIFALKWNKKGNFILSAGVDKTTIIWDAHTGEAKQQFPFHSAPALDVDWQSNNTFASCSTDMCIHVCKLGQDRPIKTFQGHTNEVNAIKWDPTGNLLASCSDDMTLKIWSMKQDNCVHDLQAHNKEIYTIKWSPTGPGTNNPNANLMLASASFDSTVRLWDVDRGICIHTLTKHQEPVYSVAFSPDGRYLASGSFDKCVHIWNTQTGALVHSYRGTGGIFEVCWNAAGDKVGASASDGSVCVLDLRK

B1: HA-tagged ZEB1 (protein, UniProt P37275 1-1124)
chain: MADGPRCKRRKQANPRRNNVTNYNTVVETNSDSDDEDKLHIVEEESVTDAADCEGVPEDDLPTDQTVLPGRSSEREGNAKNCWEDDRKEGQEILGPEAQADEAGCTVKDDECESDAENEQNHDPNVEEFLQQQDTAVIFPEAPEEDQRQGTPEASGHDENGTPDAFSQLLTCPYCDRGYKRFTSLKEHIKYRHEKNEDNFSCSLCSYTFAYRTQLERHMTSHKSGRDQRHVTQSGCNRKFKCTECGKAFKYKHHLKEHLRIHSGEKPYECPNCKKRFSHSGSYSSHISSKKCISLIPVNGRPRTGLKTSQCSSPSLSASPGSPTRPQIRQKIENKPLQEQLSVNQIKTEPVDYEFKPIVVASGINCSTPLQNGVFTGGGPLQATSSPQGMVQAVVLPTVGLVSPISINLSDIQNVLKVAVDGNVIRQVLENNQANLASKEQETINASPIQQGGHSVISAISLPLVDQDGTTKIIINYSLEQPSQLQVVPQNLKKENPVATNSCKSEKLPEDLTVKSEKDKSFEGGVNDSTCLLCDDCPGDINALPELKHYDLKQPTQPPPLPAAEAEKPESSVSSATGDGNLSPSQPPLKNLLSLLKAYYALNAQPSAEELSKIADSVNLPLDVVKKWFEKMQAGQISVQSSEPSSPEPGKVNIPAKNNDQPQSANANEPQDSTVNLQSPLKMTNSPVLPVGSTTNGSRSSTPSPSPLNLSSSRNTQGYLYTAEGAQEEPQVEPLDLSLPKQQGELLERSTITSVYQNSVYSVQEEPLNLSCAKKEPQKDSCVTDSEPVVNVIPPSANPINIAIPTVTAQLPTIVAIADQNSVPCLRALAANKQTILIPQVAYTYSTTVSPAVQEPPLKVIQPNGNQDERQDTSSEGVSNVEDQNDSDSTPPKKKMRKTENGMYACDLCDKIFQKSSSLLRHKYEHTGKRPHECGICKKAFKHKHHLIEHMRLHSGEKPYQCDKCGKRFSHSGSYSQHMNHRYSYCKREAEERDSTEQEEAGPEILSNEHVGARASPSQGDSDERESLTREEDEDSEKEEEEEDKEMEELQEEKECEKPQGDEEEEEEEEEVEEEEVEEAENEGEEAKTEGLMKDDRAESQASSLGQKVGESSEQVSEEKTNEA
B2: endogenous TBL1 protein (protein, UniProt O60907 1-577)
chain: T1 sequence

Columns and labels:
[1] = target: T1, Flag-tagged Transducin beta-like 1 (TBL1) (human); experiment: co-IP; HEK293T cells transiently co-transfected with Flag-TBL1 and HA-ZEB1; cell extracts immunoprecipitated with anti-Flag or control IgG; western blot
[2] = target: NCoR1 (human (endogenous in HMEC-RAS-ZEB1)) (UniProt O75376); experiment: co-IP; whole cell extracts of HMEC-RAS-ZEB1 cells immunoprecipitated with anti-ZEB1, anti-TBL1, anti-TBLR1, anti-NCoR or control IgG; precipitates and 3% of input analysed by western blot
[3] = target: T2, TBLR1 (human (endogenous in HMEC-RAS-ZEB1)); experiment: as above

Binder	binding [1]	binding [2]	binding [3]
B1	binds	–	–
B2	–	binds	binds
